Experimental data taken from the supplement of paper PMC3334620.
Over roughly 33,000 sequences, “E-score (-0.5 to 0.5)” has its median near -0.015; the highest 2% begin near 0.3. The list shows a part of the results.

Biological target: T1, Abf1 (UniProt P14164)
T1 sequence: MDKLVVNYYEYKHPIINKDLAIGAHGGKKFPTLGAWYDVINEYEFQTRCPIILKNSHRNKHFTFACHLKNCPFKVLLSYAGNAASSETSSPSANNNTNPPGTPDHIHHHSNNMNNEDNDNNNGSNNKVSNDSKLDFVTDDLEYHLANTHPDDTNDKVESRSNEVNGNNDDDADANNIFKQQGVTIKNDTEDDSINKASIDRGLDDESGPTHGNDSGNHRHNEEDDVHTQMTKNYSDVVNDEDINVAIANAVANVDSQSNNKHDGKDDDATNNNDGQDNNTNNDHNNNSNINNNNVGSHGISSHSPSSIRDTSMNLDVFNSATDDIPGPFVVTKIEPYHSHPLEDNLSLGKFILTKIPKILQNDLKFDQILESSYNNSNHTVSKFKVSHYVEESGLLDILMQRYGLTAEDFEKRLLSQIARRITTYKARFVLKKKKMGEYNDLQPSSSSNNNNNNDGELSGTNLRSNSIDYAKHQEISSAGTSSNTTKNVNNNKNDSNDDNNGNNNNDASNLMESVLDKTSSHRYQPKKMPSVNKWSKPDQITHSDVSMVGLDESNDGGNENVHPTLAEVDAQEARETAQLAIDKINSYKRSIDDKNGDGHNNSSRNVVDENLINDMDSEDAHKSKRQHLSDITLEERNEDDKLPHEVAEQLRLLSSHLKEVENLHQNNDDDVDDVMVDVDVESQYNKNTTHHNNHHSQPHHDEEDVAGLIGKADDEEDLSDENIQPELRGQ
Assay: PBM E-score (8-mer binding enrichment) (E-score (-0.5 to 0.5)); higher = stronger / more preferred TF binding
Conditions: protein concentration: 200 nM; construct: GST-full length
Procedure, shortened: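 GST-tagged yeast TFs (full-length or DNA-binding domain) were made by PURExpress in vitro transcription/translation and applied at about 100-200 nM to universal all-10-mer Agilent arrays. The arrays were made double-stranded by primer extension, on fresh or once-stripped slides. Bound protein was detected with fluorescent anti-GST, and scans were normalised with masliner. Each ungapped eight-base word, pooled with its reverse complement, received an E-score (modified Wilcoxon-Mann-Whitney statistic) from the Universal PBM Analysis Suite.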

Sequence	PBM E-score
CCTGTTCG	-0.211
TGTATGAA	-0.0411
GGGATTCA	0.0595
AACTTCAT	-0.0877
TAACGTCA	0.262
CTGGGGCA	-0.0646
AGAACCCC	-0.221
GTAAACGA	0.252
GTGACTGA	0.198
AACCGGCC	-0.068
GCGAGAAA	-0.0304
CCAATGCA	-0.113
AGAGAAAC	-0.133
AAGGCGCA	-0.00185
CAATAGGC	-0.0919
AGTGCTAT	-0.164
CAATGAGG	-0.155
GGGGGGAA	-0.326
GAAAGATC	0.0837
CTGTATGC	-0.148
GAGGGGCA	-0.241
GAGTAACC	0.0918
GGAAGGTA	-0.12
CCGCTTGC	-0.0771
AACTGGAA	-0.121

Sequence	PBM E-score
CGCCTTCA	-0.3
GAGGAACC	-0.0481
AGTGTGTG	-0.0735
CATCAATC	0.096
CATGGTTC	0.0582
ATTGAGGC	-0.0187
CTTGTGAC	0.082
CCATACCA	-0.15
ATGGACCG	-0.167
ACGCACCT	0.0162
AATATGGA	-0.0361
ATACAGCC	-0.177
CACCCCGC	-0.155
ACTTGGCC	-0.0773
GGTCTTAC	-0.212
CAGGTTCC	-0.166
AGCTCAGA	-0.0805
AGATACCT	-0.0171
CTAGAAAG	-0.0726
GCGGTGTA	-0.141
AACGTGTA	-0.00361
AAAGACGG	0.185
CGACTTTA	-0.0475
TGAATGAA	-0.0107
GGGCAATA	-0.0147

Sequence	PBM E-score
ATATCAGC	0.00929
CTTTCTAC	0.185
CAGTGCGG	-0.103
CACTCAAA	0.162
CGGGCAGA	-0.0678
AGAAGACG	0.0438
GAACAACA	-0.0189
ATTACATA	0.156
AGATTACT	0.0193
CTAAACTC	-0.0785
TCATTACA	0.194
ATGATGAC	0.306
AATCAAAG	-0.0218
ACCGTGGC	0.0847
AATTAAAG	-8e-05
AGTCTATA	-0.12
CAGGGCTA	-0.201
AACACATG	-0.0328
CTCAGCAA	-0.0384
AACGAAGT	0.136
GACGGCGA	0.0475
ACATTCCG	0.0731
AAGCGAAA	-0.122
AGAACGCG	-0.0195
CCAGGAAA	0.0999

Quoted at random: two records from the list, in no set order.
Sequence	PBM E-score
CATGGTTC	0.0582
GGTCTTAC	-0.212

Single entries from above.
GGTCTTAC | PBM E-score: -0.212
CAGGTTCC | PBM E-score: -0.166
AGAGAAAC | PBM E-score: -0.133
AGTGTGTG | PBM E-score: -0.0735

Additional records follow.

Sequence	PBM E-score
CGCGCGAA	0.073
CCTTCCTA	-0.311
ACCATCTG	-0.129
AGTTAAAG	0.0855
CCACTGTC	-0.129
AAGTGCGA	-0.122
GCGTTTAA	-0.00471
CCGCCTTC	-0.262
CCCGAAGG	-0.143
TGCTAGCA	0.0679
GCACACTA	-0.111
CGCTTCTA	0.115
TAACACTA	0.21
ACCGGGAG	-0.135
ATGTCTCC	-0.00691
ACCAAAAC	0.0329
CGTGAAGA	0.116
CTGGACGC	-0.0835
GAATATCA	0.334
AGGACCGG	-0.209
GGACCGGA	-0.0591
ATAAGATC	0.153
CACAACCG	-0.00582
CAGATCCC	-0.155
CCTTCTTA	-0.027

Sequence	PBM E-score
GGCAGCCA	-0.171
ATGGACGA	0.26
GCTCTAGA	-0.151
CTACTTGA	-0.0709
ATGTGGAC	0.0328
CTGTTACC	-0.136
GCGTAGAC	-0.0682
TCGACCAA	-0.126
GTGGCGTA	-0.0944
TATTCCAA	0.108
ACCGCCAA	-0.124
CATTCTTA	0.185
AGGAACTG	-0.293
ATGTTGTG	0.0648
ACCGGCGC	-0.0873
GTGGAATA	-0.00804
ACTCCGCG	-0.11
GACGAGCA	0.0707
ACGACAGA	0.308
CGCCAAAA	-0.0534
ACTTCGAC	0.0389
CATGCTGG	-0.109
CTCTGATC	-0.00919
ATCCAAGA	-0.0165
TGAGATAA	0.191

Sequence	PBM E-score
CCGTGCTC	0.187
GGTATGAC	-0.0891
ATATGTTC	0.0482
CCTCTGAA	-0.222
CCTCGTCC	-0.0917
ATAATCAC	0.331
TTACAAAA	0.00518
AAGCCGAT	0.0822
GGCCCAGA	-0.346
CCTGCGGC	-0.271
AAACCACC	-0.115
ACTACCCA	-0.0214
CCCCGGGA	-0.274
AGAAGATC	0.00278
CCAGTGCA	-0.0128
AGCAACAT	-0.115
CCGAGCTC	0.0661
ACATAAAT	0.172
GGACTAAC	0.0161
CAGTCGAG	-0.177
AGGTCATA	0.00674
AGCCTAAC	-0.156
GCCCCACC	-0.318
CAATCCGA	0.0384
AGTGGCCC	-0.198

Sequence	PBM E-score
AAAGAATG	0.2
GACCTGGA	-0.0772
AACCTCCT	-0.131
CCGGAGTA	0.175
CTGCGTTC	-0.0469
CATACCAA	-0.177
AGACGATC	0.113
ACTGGGAC	-0.051
GCACAGAA	0.0128
AACAACGT	0.11
GCACAGCA	0.0353
GGACCGTA	0.108
ATCGTCTG	0.148
CCCGCGGG	-0.00852
ACGTGCCA	-0.181
TATACTAA	0.131
ATATTCGG	0.0544
ATTTACGC	0.0524
GGCGGCCA	-0.191
AAGTTTCA	0.0531
CGCACACA	-0.0281
GGCGCCAA	7e-05

3 neighbouring entries from above, quoted:
Sequence	PBM E-score
AACAACGT	0.11
GCACAGCA	0.0353
GGACCGTA	0.108
